Test results from PubChem BioAssay AID540276 (National Center for Advancing Translational Sciences (NCATS), 2011).
The campaign covered roughly 300,000 compounds. About 5,400 (1.8%) were called active. Inconclusive means that the source gave no clear call. Such entries were picked first, then a sample of the others. Calls come from the whole dose curve; tested in HEK293 cells. Potencies beside an inconclusive call are fits to weak or partial responses and may not hold up.

Test: qHTS for inhibitors of binding or entry into cells for Marburg Virus
Details: Marburg virus pseudotyped entry inhibition, cell reporter; series mostly up to 37.8 µM
Potency is the fitted concentration of half-maximal effect.

Structure (SMILES) | Potency
CC1=CC(C)(C)N2C(=O)C3(SCC(=O)N3c3ccc(F)cc3)c3cc(C)cc1c32 (configuration not stated) | inconclusive: 2.06 µM [inhibitor, full curve, poor fit]
CN1CCN(C(=S)Nc2ccc(Cl)cc2Cl)CC1 | inconclusive: 0.251 µM [activator, full curve, poor fit]
CC1(c2cc([N+](=O)[O-])cc([N+](=O)[O-])c2)CC(C)(C)N(C(=O)c2ccccc2)c2ccccc21 (configuration not stated) | inconclusive: 18.3 µM [inhibitor, single point]
Cc1noc(C)c1CSCC(=O)N(CC(C)C)c1c(N)n(Cc2ccccc2)c(=O)[nH]c1=O | inactive
CC(C)C(=O)N1CCN(c2ccccc2NC(=O)c2ccc(C#N)cc2F)CC1 | inconclusive: 1.12 µM [inhibitor, full curve, poor fit]
COc1ccccc1NC(=O)C1=C(C)Nc2nc(SCc3ccccc3)nn2C1c1cccs1 (configuration not stated) | inconclusive: 1.41 µM [inhibitor, full curve, poor fit]
O=C(CSc1nc2ccc(Cl)cc2o1)NCc1ccc2c(c1)OCO2 | inactive
O=C(NNC(=O)C1CCCO1)c1ccc(Cl)cc1 (configuration not stated) | inconclusive: 4.11 µM [activator, partial curve, poor fit]
CCOc1ccc(C(=O)Nc2ccc3nc(SCC(=O)N4CCCC4)sc3c2)cc1 | inconclusive: 0.501 µM [activator, partial curve, poor fit]
O=C(CCl)Nc1c[nH]c(=O)[nH]c1=O | inconclusive: 15.8 µM [inhibitor, single point]
O=C(c1cccnc1)N1CCCc2ccccc21 | inconclusive: 0.082 µM [inhibitor, full curve, poor fit]
COc1ccc(Nc2nc(C)cc(C)n2)cc1Cl | inconclusive: 3.55 µM [activator, full curve]
CCn1cc2nc(SCC(=O)Nc3cccc(Cl)c3C)n(Cc3ccc(Cl)cc3)c(=O)c2n1 | inconclusive: 31.6 µM [activator, single point]
CCN(CC(=O)NCc1ccc(F)cc1)C(=O)Cc1ccc(OC)cc1 | inconclusive: 5.62 µM [inhibitor, full curve]
Cc1ccc(C(C)C)c(OCC(=O)OCC(=O)NC2CCS(=O)(=O)C2)c1 (configuration not stated) | inconclusive: 6.31 µM [inhibitor, single point]
Oc1ccccc1CN1CCCC(N2CCc3ccccc3C2)C1 (configuration not stated) | inactive
O=C(Nc1ccccc1)OCC1COC(c2ccccc2)(c2ccccc2)O1 (configuration not stated) | inactive
CCCCN1CCCCC1C(=O)Nc1c(C)cc(C)cc1C (configuration not stated) | inconclusive: 29.1 µM [inhibitor, single point]
O=[N+]([O-])c1cccc(C=NN=Cc2ccccc2O)c1 | inconclusive: 6.31 µM [activator, single point]
O=C(NC(=S)Nc1ccc(N2CCOCC2)cc1)c1ccccc1 | inconclusive: 5.01 µM [inhibitor, single point]
CCn1c(C)c(C(C)=O)c(N2CCCCC2)nc1=S | inconclusive: 35.5 µM [inhibitor, single point]

Structure (SMILES) | Potency
Nc1ccc(-c2sc(N)nc2-c2ccccc2)cc1 | inconclusive: 10 µM [inhibitor, single point]
COc1ccccc1N(C)S(=O)(=O)c1ccc(C(=O)Nc2ccncc2)cc1 | inconclusive: 8.91 µM [inhibitor, partial curve, poor fit]
COc1cccc(NC(=O)CSc2nc3scc(C)c3c(=O)[nH]2)c1 | inactive
O=C(N/N=C\c1c[nH]c2ccccc12)c1ccc(O)cc1 | inconclusive: 3.98 µM [activator, full curve, poor fit]
Cc1ccc(COn2c(-c3ccc(Cl)cc3)nc3ccc([N+](=O)[O-])cc32)cc1 | inconclusive: 29.1 µM [inhibitor, single point]
CCn1cnc2cc(NCc3ccc(N(C)C)cc3)ccc21 | inconclusive: 2 µM [activator, partial curve, poor fit]
COCCNC(=S)N/N=C1\CC(C)CC(C)(C)C1 (configuration not stated) | inactive
C=CCn1c(SCc2nc3c(c(=O)[nH]c(=O)n3CCCC)n2CCC)nnc1-c1ccccc1 | inactive
N=C(N)SCc1cccc2ccccc12 | inconclusive: 23.1 µM [inhibitor, single point]
FC(F)(F)c1cccc(Cc2noc(CN3CCC(c4ccncc4)CC3)n2)c1 | inconclusive: 4.47 µM [inhibitor, partial curve]
COc1ccc(NC(=O)C(CCCCNC(=O)OC(C)(C)C)NC(=O)OCc2ccccc2)cc1 (configuration not stated) | inactive
C=CCn1c(SCC(=O)N2c3ccccc3Sc3ccccc32)nnc1-c1ccco1 | inconclusive: 15.8 µM [inhibitor, single point]
CCC(C(=O)OCC(=O)Nc1cc(Cl)cc(Cl)c1)c1ccccc1 (configuration not stated) | inconclusive: 7.31 µM [inhibitor, partial curve, poor fit]
CCN(CCn1cccn1)Cc1nc(-c2ccc(C(=O)OC)cc2)no1 | inconclusive: 0.316 µM [activator, full curve, poor fit]
O=C(NC(=S)Nc1ccc(N2CCOCC2)c(Cl)c1)c1cncc(Br)c1 | inconclusive: 14.6 µM [activator, partial curve, poor fit]
CCc1cc2c(=O)c(-c3cscn3)coc2cc1O | inconclusive: 20 µM [activator, single point]
O=C(NCCC(=O)N1CCC2(CC1)NCCc1[nH]cnc12)c1cccc(Cl)c1 | inconclusive: 5.62 µM [inhibitor, single point]
O=C(O)C1CCCCC1C(=O)N1CCN(S(=O)(=O)c2ccc(F)cc2)CC1 (configuration not stated) | inconclusive: 15.8 µM [activator, single point]
CCNc1nc(NC(C)C)nc(SCCOc2ccc(C)cc2)n1 | inconclusive: 20 µM [inhibitor, single point]
CN(CCc1ccccn1)C(=O)Nc1ccc(Cl)cc1 | inactive
Clc1cccc(/C(Cc2nc3ccccc3[nH]2)=N\Nc2ccccc2)c1 | inconclusive: 28.2 µM [inhibitor, single point]

Copied from the results shown (3 entries):
Structure (SMILES) | Potency
O=C(NCCC(=O)N1CCC2(CC1)NCCc1[nH]cnc12)c1cccc(Cl)c1 | inconclusive: 5.62 µM [inhibitor, single point]
O=C(O)C1CCCCC1C(=O)N1CCN(S(=O)(=O)c2ccc(F)cc2)CC1 (configuration not stated) | inconclusive: 15.8 µM [activator, single point]
CCNc1nc(NC(C)C)nc(SCCOc2ccc(C)cc2)n1 | inconclusive: 20 µM [inhibitor, single point]
